One experiment addresses GST-fused SUMO2 (UniProt P61956). As to the kind of experiment: pull-down; GST-fused Ub, ISG15, SUMO1 or SUMO2 loaded on glutathione agarose, USP13 or USP13-UBA12 (~100 µM) added; 1-hr incubation, washed three times, eluted by GSH buffer; SDS-PAGE with Coomassie blue staining; both purified.
The target in a further experiment is GST-fused SUMO1 (UniProt P63165). Described as above.

Sequences of proteins named here, by UniProt entry; tags and fusion partners are left off. Residues count along the entry.
UniProt P61956: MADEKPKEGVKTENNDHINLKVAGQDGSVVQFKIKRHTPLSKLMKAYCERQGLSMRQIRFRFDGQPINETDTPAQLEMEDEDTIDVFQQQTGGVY
UniProt P63165, residues 1-97: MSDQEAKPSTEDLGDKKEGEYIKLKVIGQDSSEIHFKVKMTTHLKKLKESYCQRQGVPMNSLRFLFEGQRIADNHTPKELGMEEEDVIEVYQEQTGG

These are yes or no findings as the source states them, for the method shown.

Data on one molecule can be found in article PMC3247260.

B1: USP13 (residues 21-863) (enzyme, UniProt Q92995 21-863)
chain: AGDIGELLVPHMPTIRVPRSGDRVYKNECAFSYDSPNSEGGLYVCMNTFLAFGREHVERHFRKTGQSVYMHLKRHVREKVRGASGGALPKRRNSKIFLDLDTDDDLNSDDYEYEDEAKLVIFPDHYEIALPNIEELPALVTIACDAVLSSKSPYRKQDPDTWENELPVSKYANNLTQLDNGVRIPPSGWKCARCDLRENLWLNLTDGSVLCGKWFFDSSGGNGHALEHYRDMGYPLAVKLGTITPDGADVYSFQEEEPVLDPHLAKHLAHFGIDMLHMHGTENGLQDNDIKLRVSEWEVIQESGTKLKPMYGPGYTGLKNLGNSCYLSSVMQAIFSIPEFQRAYVGNLPRIFDYSPLDPTQDFNTQMTKLGHGLLSGQYSKPPVKSELIEQVMKEEHKPQQNGISPRMFKAFVSKSHPEFSSNRQQDAQEFFLHLVNLVERNRIGSENPSDVFRFLVEERIQCCQTRKVRYTERVDYLMQLPVAMEAATNKDELIAYELTRREAEANRRPLPELVRAKIPFSACLQAFSEPENVDDFWSSALQAKSAGVKTSRFASFPEYLVVQIKKFTFGLDWVPKKFDVSIDMPDLLDINHLRARGLQPGEEELPDISPPIVIPDDSKDRLMNQLIDPSDIDESSVMQLAEMGFPLEACRKAVYFTGNMGAEVAFNWIIVHMEEPDFAEPLTMPGYGGAASAGASVFGASGLDNQPPEEIVAIITSMGFQRNQAIQALRATNNNLERALDWIFSHPEFEEDSDFVIEMENNANANIISEAKPEGPRVKDGSGTYELFAFISHMGTSTMSGHYICHIKKEGRWVIYNDHKVCASERPPKDLGYMYFYRRIPS
On to B1, for which the binding result in the experiment with GST-fused SUMO2 and in the experiment with GST-fused SUMO1 was “no binding” in each case.
